The text below walks through data of article PMC6803667, “Binding site plasticity in viral PPxY Late domain recognition by the third WW domain of human NEDD4” (Scientific Reports, 2019).

Amino acid sequences for entries named in this document (tags omitted). Residues count along the entry.
first WW domain of human YAP2 (YAP-WW1) (P46937, residues 165-209): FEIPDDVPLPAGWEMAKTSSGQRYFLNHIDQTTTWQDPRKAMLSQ
second WW domain of human YAP2 (YAP-WW2) (P46937, residues 228-271): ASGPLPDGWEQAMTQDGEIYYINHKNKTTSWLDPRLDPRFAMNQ

Results are given in words; binding and its absence hold for the method and conditions named.

Test [1] addresses second WW domain of human YAP2 (YAP-WW2) (human) (UniProt P46937). The experiment in a line: ITC; both purified. For orientation: Isothermal titration calorimetry measures the heat released or taken up as one component is titrated into another.
In test [2] the target is first WW domain of human YAP2 (YAP-WW1) (human) (UniProt P46937). Put plainly: ITC; both purified.

As for DLWLPPPEYVPL [Rabies Late domain peptide], the binding entry in test [1] is listed as “no binding”.

Regarding PPPYVEPTAP (acetylated N-terminus, amidated C-terminus) [HTLV1ter Late domain peptide], the binding entry in test [2] and in test [1] was “no binding” in each case.
